Experimental data reported in the supplement of paper PMC10331698.
± gives the standard deviation of the averaged measurements. Most values lie at the level of the controls, where differences are scatter.

Experiments:
Assay in all cases: level (log10 ratio to DMSO vehicle control); higher = higher biomarker level / cell amount than vehicle control
[1] = compound: NC(=O)C(F)(F)C(F)(F)C(F)(F)F [Heptafluorobutyramide]; settings: 2200 nM; in DMSO
Experimental: (§1)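 BioMAP Diversity Plus panel of 12 human primary cell co-culture systems (3C, 4H, LPS, SAg, BT, BF4T, BE3C, CASM3C, HDF3CGF, KF3CT, MyoF, Mphg). Compounds were added 1 h before stimulation and left for 24 h (MyoF 48 h; BT 72 h for soluble read-outs or 6 d for IgG). Biomarkers were read by ELISA, cytotoxicity by SRB, PBMC viability and proliferation by Alamar Blue. Each well value was divided by the mean of 8 DMSO control wells on the same plate and log10 transformed; duplicate blinded samples were tested at 4 concentrations.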

[2] = compound: O=C(O)C(F)(F)C(F)(F)C(F)(F)C(F)(F)F [Perfluoropentanoic acid]; settings: in DMSO
Experimental: as §1

[3] = compound: CC(C)(C)C(=O)CC(=O)C(F)(F)C(F)(F)C(F)(F)F [(Heptafluorobutanoyl)pivaloylmethane]; settings: 2200 nM; in DMSO
Experimental: as §1

[4] = compound: CCN(CCO)S(=O)(=O)C(F)(F)C(F)(F)C(F)(F)C(F)(F)C(F)(F)C(F)(F)C(F)(F)C(F)(F)F [N-Ethyl-N-(2-hydroxyethyl)perfluorooctanesulfonamide]; settings: in DMSO
Experimental: as §1

[5] = compound: OCC(F)(F)C(F)(F)C(F)(F)F [1H,1H-Heptafluorobutanol]; settings: 2200 nM; in DMSO
Experimental: as §1

[6] = compound: CCCCCCCCC(F)(F)C(F)(F)C(F)(F)C(F)(F)C(F)(F)C(F)(F)F [1-(Perfluorohexyl)octane]; settings: in DMSO
Experimental: as §1

[7] = compound: OCCC(F)(F)C(F)(F)C(F)(F)C(F)(F)C(F)(F)C(F)(F)F [6:2 Fluorotelomer alcohol]; settings: 2200 nM; in DMSO
Experimental: as §1

[8] = compound: NCC(F)(F)C(F)(F)C(F)(F)C(F)(F)C(F)(F)C(F)(F)C(F)(F)F [1H,1H-Perfluorooctylamine]; settings: 2200 nM; in DMSO
Experimental: as §1

[9] = compound: CN(C(=O)C(F)(F)C(F)(F)C(F)(F)F)[Si](C)(C)C [N-Methyl-N-trimethylsilylheptafluorobutyramide]; settings: 2200 nM; in DMSO
Experimental: as §1

[10] = compound: O=C(O)C(F)(F)C(F)(F)C(F)(F)C(F)(F)C(F)(F)C(F)(F)C(F)(F)C(F)(F)C(F)(F)C(F)F [11-H-Perfluoroundecanoic acid]; settings: 2200 nM; in DMSO
Experimental: as §1

[11] = compound: FC(F)(F)C(F)(F)C(F)(F)C(F)(F)C(F)(F)C(F)(F)CC1CO1 [3-(Perfluorohexyl)-1,2-epoxypropane]; settings: 2200 nM; in DMSO
Experimental: as §1

[12] = compound: O=S(=O)(O)CCC(F)(F)C(F)(F)C(F)(F)C(F)(F)C(F)(F)C(F)(F)C(F)(F)C(F)(F)F [8:2 Fluorotelomer sulfonic acid]; settings: in DMSO
Experimental: as §1

[13] = compound: O=C(O)C(F)(F)C(F)(F)C(F)(F)C(F)(F)C(=O)O [Octafluoroadipic acid]; settings: 2200 nM; in DMSO
Experimental: as §1

[14] = compound: O=C(O)C(F)(F)C(F)(F)C(F)(F)C(F)(F)C(F)(F)C(F)(F)F [Perfluoroheptanoic acid]; settings: in DMSO
Experimental: as §1

[15] = compound: O=C(O)C(F)(F)C(F)(F)C(F)(F)OC(F)(F)F [Perfluoro(4-methoxybutanoic) acid]; settings: 2200 nM; in DMSO
Experimental: as §1

[16] = compound: Cc1ccc(S(=O)(=O)OCC(F)(F)C(F)(F)C(F)(F)C(F)(F)C(F)(F)C(F)F)cc1 [1H,1H,7H-Perfluoroheptyl 4-methylbenzenesulfonate]; settings: 2200 nM; in DMSO
Experimental: as §1

| Test System | level (log10) [1] | level (log10) ([2]; 2200 nM) | level (log10) ([2]; 6700 nM) | level (log10) ([2]; 20000 nM) | level (log10) ([2]; 60000 nM) | level (log10) [3] | level (log10) ([4]; 2200 nM) | level (log10) ([4]; 6700 nM) | level (log10) ([4]; 20000 nM) | level (log10) [5] | level (log10) ([6]; 740 nM) | level (log10) ([6]; 2200 nM) | level (log10) [7] | level (log10) [8] | level (log10) [9] | level (log10) [10] | level (log10) [11] | level (log10) ([12]; 2200 nM) | level (log10) ([12]; 6700 nM) | level (log10) ([12]; 20000 nM) | level (log10) ([12]; 60000 nM) | level (log10) [13] | level (log10) ([14]; 2200 nM) | level (log10) ([14]; 6700 nM) | level (log10) ([14]; 20000 nM) | level (log10) ([14]; 60000 nM) | level (log10) [15] | level (log10) [16] |
| --- | --- | --- | --- | --- | --- | --- | --- | --- | --- | --- | --- | --- | --- | --- | --- | --- | --- | --- | --- | --- | --- | --- | --- | --- | --- | --- | --- | --- |
| 3C:CCL2/MCP-1 | 0.0105 ± 0.035 | -0.0025 ± 0.023 | -0.0105 ± 0.00071 | 0.0005 ± 0.0021 | 0.0215 ± 0.019 | -0.0015 ± 0.025 | -0.0055 ± 0.052 | -0.032 ± 0.016 | -0.145 ± 0.032 | 0.005 ± 0.0085 | 0.013 ± 0.027 | 0.0085 ± 0.00071 | 0.0115 ± 0.066 | 0.007 ± 0.017 | 0.0065 ± 0.028 | 0.007 ± 0.0099 | 0.027 ± 0.028 | 0.0045 ± 0.025 | -0.01 ± 0.0085 | -0.0335 ± 0.021 | -0.0185 ± 0.005 | -0.001 ± 0.0071 | 0.0335 ± 0.0064 | 0.0015 ± 0.015 | -0.009 ± 0.013 | 0.032 ± 0.045 | 0.016 ± 0.047 | 0.0205 ± 0.021 |
| 3C:CD54/ICAM-1 | -0.0275 ± 0.022 | -0.0155 ± 0.012 | -0.0145 ± 0.03 | -0.028 ± 0.021 | -0.0075 ± 0.022 | 0.0115 ± 0.033 | -0.004 ± 0.03 | 0.03 ± 0.013 | 0.075 ± 0.065 | 0.011 ± 0.021 | 0.003 ± 0.014 | 0.0195 ± 0.005 | -0.009 ± 0.014 | -0.0015 ± 0.033 | -0.012 ± 0.0028 | 0.0005 ± 0.011 | 0.0115 ± 0.013 | -0.013 ± 0.0057 | -0.008 ± 0.0099 | 0.003 ± 0.013 | 0.034 ± 0.0042 | -0.0165 ± 0.018 | 0.012 ± 0.0028 | 0.0025 ± 0.0035 | -0.0095 ± 0.0092 | 0.008 ± 0.023 | -0.026 ± 0.011 | 0.009 ± 0.0057 |
| 3C:CD62E/E-Selectin | -0.005 ± 0.057 | -0.0065 ± 0.0092 | -0.0085 ± 0.0035 | 0.0005 ± 0.0064 | 0.0175 ± 0.026 | 0.002 ± 0.02 | 0.0235 ± 0.016 | 0.0685 ± 0.012 | 0.068 ± 0.0057 | 0.0135 ± 0.023 | -0.011 ± 0.0014 | -0.019 ± 0.0085 | -0.021 ± 0.062 | 0.0075 ± 0.054 | -0.018 ± 0.031 | -0.0065 ± 0.013 | -0.0055 ± 0.0035 | 0.008 ± 0.0042 | 0.013 ± 0.025 | 0.0385 ± 0.0021 | 0.0715 ± 0.0078 | -0.0075 ± 0.023 | 0.0345 ± 0.0078 | 0.007 ± 0.0042 | 0.0125 ± 0.0078 | 0.0185 ± 0.00071 | -0.008 ± 0.03 | -0.0035 ± 0.0078 |
| 3C:CD87/uPAR | -0.0265 ± 0.043 | 0.0015 ± 0.013 | -0.003 ± 0.021 | -0.0045 ± 0.021 | -0.0105 ± 0.015 | -0.006 ± 0.027 | -0.0025 ± 0.013 | -0.047 ± 0.027 | -0.124 ± 0.046 | -0.007 ± 0.011 | -0.0115 ± 0.0078 | 0.0085 ± 0.028 | -0.0305 ± 0.05 | -0.0105 ± 0.023 | -0.0135 ± 0.00071 | -0.001 ± 0.013 | 0.0285 ± 0.022 | 0.01 ± 0.023 | 0.0195 ± 0.016 | -0.001 ± 0.058 | -0.003 ± 0.03 | -0.01 ± 0.016 | 0.033 ± 0.023 | 0.0015 ± 0.0021 | -0.0115 ± 0.026 | 0.0045 ± 0.013 | -0.0225 ± 0.054 | -0.0125 ± 0.00071 |
| 3C:CD106/VCAM-1 | -0.007 ± 0.014 | -0.0065 ± 0.011 | 0.002 ± 0.023 | -0.0055 ± 0.021 | 0.0235 ± 0.015 | -0.004 ± 0.0099 | -0.005 ± 0.021 | 0.0005 ± 0.005 | 0.005 ± 0.0085 | 0.0115 ± 0.0035 | -0.01 ± 0.0042 | -0.0065 ± 0.013 | 0.008 ± 0.0014 | -0.001 ± 0.0099 | -0.026 ± 0.0028 | -0.008 ± 0.014 | -0.016 ± 0.02 | 0.006 ± 0.035 | 0.002 ± 0.0014 | 0.009 ± 0.0028 | 0.019 ± 0.016 | -0.009 ± 0.02 | 0.0075 ± 0.023 | 0.0165 ± 0.018 | -0.02 ± 0.0042 | -0.003 ± 0.014 | -0.02 ± 0.023 | -0.03 ± 0.02 |
| 3C:CD141/Thrombomodulin | 0.0015 ± 0.1 | 0.0215 ± 0.023 | 0.024 ± 0.021 | 0.0345 ± 0.005 | 0.0685 ± 0.042 | -0.011 ± 0.052 | 0.046 ± 0.0099 | 0.046 ± 0.03 | 0.261 ± 0.14 | -0.0065 ± 0.019 | -0.0095 ± 0.042 | 0.0045 ± 0.026 | -0.027 ± 0.028 | -0.017 ± 0.017 | -0.0015 ± 0.022 | 0.001 ± 0.014 | -0.019 ± 0.023 | 0.002 ± 0.0099 | -0.003 ± 0.024 | -0.011 ± 0.034 | 0.0285 ± 0.037 | 0.0065 ± 0.0078 | 0.0045 ± 0.00071 | 0.0185 ± 0.0035 | 0.0035 ± 0.00071 | 0.0205 ± 0.0021 | 0.0005 ± 0.07 | 0.009 ± 0.023 |
| 3C:CD142/Tissue Factor | -0.0165 ± 0.073 | 0.0045 ± 0.0078 | 0.0225 ± 0.011 | 0.018 ± 0.027 | 0.0395 ± 0.056 | 0.019 ± 0.0057 | 0.017 ± 0.0028 | 0.0825 ± 0.036 | 0.235 ± 0.059 | -0.0015 ± 0.03 | 0.016 ± 0.024 | 0.003 ± 0.018 | 0.023 ± 0.044 | -0.0285 ± 0.019 | 0 ± 0.047 | -0.0185 ± 0.021 | -0.0335 ± 0.0078 | -0.0285 ± 0.025 | -0.018 ± 0.065 | 0.001 ± 0.052 | -0.0295 ± 0.046 | 0.0435 ± 0.012 | -0.0025 ± 0.005 | -0.0065 ± 0.037 | -0.004 ± 0.027 | 0.0285 ± 0.039 | 0.015 ± 0.065 | 0.012 ± 0.024 |
| 3C:CXCL8/IL-8 | 0.021 ± 0.023 | 0.0375 ± 0.049 | -0.0065 ± 0.0092 | -0.005 ± 0.027 | 0.03 ± 0.079 | -0.0165 ± 0.042 | 0.05 ± 0.0014 | 0.02 ± 0.044 | -0.0985 ± 0.1 | 0.035 ± 0.0071 | 0.002 ± 0.033 | 0.001 | 0.0205 ± 0.052 | 0.001 ± 0.042 | -0.002 ± 0.018 | 0.0175 ± 0.0035 | 0.0035 ± 0.032 | 0.017 ± 0.076 | -0.0005 ± 0.13 | 0.012 ± 0.057 | 0.079 ± 0.024 | 0.0155 ± 0.025 | 0.029 ± 0.016 | 0.0285 ± 0.04 | 0.0305 ± 0.056 | 0.0955 ± 0.088 | 0.016 ± 0.04 | 0.018 ± 0.033 |
